## Results from one PubChem assay

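CRE-bla HEK293T reporter cells under cAMP stimulation; the beta-lactamase FRET ratio is measured about 3 hours after compound addition. Each compound was run as a concentration series, mostly reaching a top of 92.4 µM. Fitted potency from the dose curve; a lower value means a more potent compound. Calls come from the whole dose curve: active means a well-fitted inhibition curve with enough effect in repeat runs, inconclusive means weak, mixed or opposite-direction curves, and inactive means a flat curve.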

Values are in µM. Every entry below has the call inconclusive. Only part of the assay is shown, chiefly results filed as inconclusive. Potencies fitted to partial, single-point or poorly fitting curves are rough. Some entries filed as inconclusive have a full curve. The first word of each remark tells which way the curve ran; it can be opposite to the aim of the assay. An entry listed twice with the same setting is a separate test.

SMILES: CCOP(=S)(NC(C)C)Oc1ccccc1C(=O)OC(C)C (stereo not shown)
Potency (µM): 34.38
remark: fluorescent

SMILES: CC(C)c1c(C(=O)Nc2ccccc2)c(-c2ccccc2)c(-c2ccc(F)cc2)n1CC[C@@H](O)C[C@@H](O)CC(=O)O
Potency (µM): 28.62
remark: activator, partial curve, poor fit

SMILES: CC[C@H](C)C(=O)O[C@H]1C[C@@H](C)C=C2C=C[C@H](C)[C@H](CC[C@@H]3C[C@@H](O)CC(=O)O3)[C@H]21
Potency (µM): 60.82
remark: activator, single point

SMILES: CCCCC(O)(Cn1cncn1)c1ccc(Cl)cc1Cl (stereo not shown)
Potency (µM): 54.43
remark: partial curve

SMILES: O=c1[nH]c2ccccc2n1C1CCN(CCCC(c2ccc(F)cc2)c2ccc(F)cc2)CC1
Potency (µM): 11.88
remark: fluorescent, partial curve

SMILES: CCCC1O[C@@H]2C[C@H]3[C@@H]4CCC5=CC(=O)C=C[C@]5(C)[C@H]4[C@@H](O)C[C@]3(C)[C@]2(C(=O)CO)O1 (stereo partly shown)
Potency (µM): 21.71
remark: fluorescent, partial curve

SMILES: CC(C)c1ccc2oc3nc(N)c(C(=O)O)cc3c(=O)c2c1
Potency (µM): 29.85
remark: fluorescent, partial curve, poor fit

SMILES: CC(C)Nc1ccc(Nc2ccccc2)cc1
Potency (µM): 54.26
remark: partial curve

SMILES: CCCCCC(=O)O[C@]1(C(C)=O)CC[C@H]2[C@@H]3CCC4=CC(=O)CC[C@]4(C)[C@H]3CC[C@@]21C
Potency (µM): 21.54
remark: fluorescent

SMILES: CC(C)(C)c1ccc(O)c(O)c1
Potency (µM): 30.64
remark: activator, partial curve, poor fit

SMILES: C=C(C)C(=O)[O][Sn]([CH2]CCC)([CH2]CCC)[CH2]CCC
Potency (µM): 4.856
remark: fluorescent, full curve

SMILES: O=C(c1ccc(F)cc1)C1CCN(CCn2c(=O)[nH]c3ccccc3c2=O)CC1
Potency (µM): 26.6
remark: fluorescent, partial curve, poor fit

SMILES: C[C@H](CN1CCCC1)C(=O)c1ccc(C(F)(F)F)cc1
Potency (µM): 26.6
remark: fluorescent, partial curve, poor fit

SMILES: NC(=O)N(O)[C@@H]1C=C[C@H](Oc2cccc(Oc3ccc(F)cc3)c2)C1
Potency (µM): 24.34
remark: activator, full curve, poor fit

SMILES: CC(=O)Oc1ccc(C(c2ccc(OC(C)=O)cc2)c2ccccn2)cc1
Potency (µM): 4.826
remark: fluorescent, full curve

SMILES: O=S(=O)(O)c1ccccc1/C=C/c1ccc(-c2ccc(/C=C/c3ccccc3S(=O)(=O)O)cc2)cc1
Potency (µM): 61.97
remark: fluorescent, partial curve, poor fit

SMILES: Nc1ccc2c3c(cccc13)-c1ccccc1-2
Potency (µM): 21.91
remark: rising, partial curve

SMILES: Cc1cccc(Nc2ccccc2C(=O)O)c1C
Potency (µM): 14.96
remark: fluorescent, partial curve, poor fit

SMILES: CCOc1cc(OCC)c(C(=O)CCC(=O)O)cc1OCC
Potency (µM): 13.33
remark: fluorescent, partial curve

SMILES: CC(C)c1ccc(O)c(C(C)C)c1
Potency (µM): 30.64
remark: full curve

SMILES: CC[C@H](C)C(=O)O[C@H]1C[C@@H](C)C=C2C=C[C@H](C)[C@H](CC[C@@H]3C[C@@H](O)CC(=O)O3)[C@H]21
Potency (µM): 55.25
remark: fluorescent, partial curve

SMILES: CC1(C)[C@H](C(=O)O[C@H](C#N)c2cccc(Oc3ccccc3)c2)[C@@H]1/C=C(\Cl)C(F)(F)F
Potency (µM): 18.71
remark: rising, partial curve, poor fit

SMILES: Nc1c2ccccc2nc2ccccc12
Potency (µM): 18.83

SMILES: O=C(Oc1ccccc1)c1cccc(C(=O)Oc2ccccc2)c1
Potency (µM): 21.83
remark: fluorescent

SMILES: Cc1ccccc1CO[C@@H]1C[C@@]2(C(C)C)CC[C@]1(C)O2
Potency (µM): 54.48
remark: fluorescent, partial curve

SMILES: Cc1ccc(C(=O)c2cc(O)c(O)c([N+](=O)[O-])c2)cc1
Potency (µM): 29.85
remark: fluorescent, partial curve

SMILES: O=C1NCN(c2ccccc2)C12CCN(CCCOc1ccc(F)cc1)CC2
Potency (µM): 6.682
remark: activator, full curve

SMILES: O=C1c2ccccc2C(=O)N1SC1CCCCC1
Potency (µM): 63.9
remark: rising, partial curve, poor fit

SMILES: O=C1NC2CCCCN2C12CCN(CCCN1c3ccccc3CCc3ccc(Cl)cc31)CC2 (stereo not shown)
Potency (µM): 16.79
remark: fluorescent, partial curve, poor fit

SMILES: O=C1N=C(O)CN1/N=C/c1ccc(-c2ccc([N+](=O)[O-])cc2)o1
Potency (µM): 30.64
remark: fluorescent, partial curve

SMILES: Cc1ccc(S(=O)(=O)C(I)I)cc1
Potency (µM): 21.69
remark: rising, partial curve

SMILES: O[C@@H](c1cc(C(F)(F)F)nc2c(C(F)(F)F)cccc12)[C@H]1CCCCN1
Potency (µM): 23.71
remark: rising, partial curve

SMILES: Cc1cc(=O)oc2cc(N(C)C)ccc12
Potency (µM): 54.48
remark: fluorescent, partial curve

SMILES: CCCCc1oc2ccc(NS(C)(=O)=O)cc2c1C(=O)c1ccc(OCCCN(CCCC)CCCC)cc1
Potency (µM): 29.85
remark: rising, partial curve

SMILES: Nc1ccc(N=Nc2ccccc2)cc1
Potency (µM): 68.59
remark: inhibitor

For reference, 4 entries once more:

SMILES,Potency (µM),remark
CC(C)c1ccc2oc3nc(N)c(C(=O)O)cc3c(=O)c2c1,29.85,"fluorescent, partial curve, poor fit"
O=S(=O)(O)c1ccccc1/C=C/c1ccc(-c2ccc(/C=C/c3ccccc3S(=O)(=O)O)cc2)cc1,61.97,"fluorescent, partial curve, poor fit"
CC[C@H](C)C(=O)O[C@H]1C[C@@H](C)C=C2C=C[C@H](C)[C@H](CC[C@@H]3C[C@@H](O)CC(=O)O3)[C@H]21,55.25,"fluorescent, partial curve"
CCCCc1oc2ccc(NS(C)(=O)=O)cc2c1C(=O)c1ccc(OCCCN(CCCC)CCCC)cc1,29.85,"rising, partial curve"

From PubChem BioAssay record AID1963591 (Tox21, 2024).